Assay results: patent US10189803B2, “Synthesis of therapeutic and diagnostic drugs centered on regioselective and stereoselective ring opening of aziridinium ions” (ILLINOIS INSTITUTE OF TECHNOLOGY, priority 2008, dated 2019)
At least one compound was matched to its structure with a doubt left. Some of these results come from one statement about several compounds together.

Assay: In vivo biodistribution of radiolabeled complexes in normal athymic mice
Description: The in vivo stability of the radiolabeled complexes was evaluated by performing biodistribution studies in normal athymic mice. Selected organs and the blood were harvested at five time points, 0.5, 1, 4, 8, and 24 h post-injection and the radioactivity measured. […] C-NE3TA radiolabeled with ^153Gd was almost completely cleared from blood, liver, spleen, lung, heart, and femur in less than 4 hours, and radioactivity level in the kidney was 0.16%±0.11 ID/g at 24 hour post-injection (Table 9).
In vivo biodistribution studies oh the radiolabeled metal complexes. Female athymic mice were obtained from Charles River Laboratories (Wilmington, Mass.) at 4-6 weeks of age. The pH of the radiolabeled ligands was adjusted to pH ˜7.0 with 0.5 M sodium bicarbonate (pH 10.5) and diluted in phosphate-buffered saline. The radiolabeled ligands ([…] for ^86Y, ^205/6Bi, ^177Lu, and ^203Pb) were administered to the mice in 200 μL of solution via tail vein injection. The mice (5 per data point) were sacrificed by exsanguination at 0.5, 1, 4, 8, and 24 h. Blood and the major organs were harvested, wet-weighed and the radioactivity measured in a γ-scintillation counter (1480 Wizard, Perkin Elmer). The percent injected dose per gram (% ID/g) was determined for each tissue. The values presented are the mean and standard deviation for each tissue.

Row | Structure (SMILES) | time to almost complete clearance from blood, liver, spleen, lung, heart, and femur (mouse, in vivo) | radioactivity levels in all organs (at 24 h) [% ID/g]
1 | O=C(O)CNC(Cc1ccc([N+](=O)[O-])cc1)CN1CCN(CC(=O)O)CCN(CC(=O)O)CC1.[153Gd] (centres unmarked) [^153Gd-C-NE3TA] | less than 4 hours | 
2 | O=C(O)CNC(Cc1ccc([N+](=O)[O-])cc1)CN1CCN(CC(=O)O)CCN(CC(=O)O)CC1.[177Lu] (centres unmarked) [^177Lu-C-NE3TA] |  | < 0.8
